# Test results published in the supplement of paper PMC9135407.
# Where “and” joins values, the source holds several entries; their conditions need not be identical. Identical values can stand only once. Counter-ions that a name gives are not always drawn. ± gives the standard deviation of the averaged measurements. The list shows a part of the results. Plates or batches differ in their baseline, so values are only roughly comparable.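 Culture-activated primary human stellate myofibroblasts, where regained lipid droplets signal inactivation. Value: share of Hoechst-counted cells above a per-plate Bodipy cutoff, in duplicate wells, with DMSO negative and nortriptyline positive controls on each plate. Hits: a control-normalized score above the plate's top-tenth-percentile nortriptyline wells, or one of a plate's three best wells. Final well concentrations are not given.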
# Tested on: primary human hepatic stellate cells (donor 1)
# Test: percent Bodipy-positive cells; higher = more lipid droplet accumulation
# Conditions: 48 h
# [1] = library stock concentration: 3.33 mM
# [2] = library stock concentration: 10 mM
# [3] = library stock concentration: 1 mM
# [4] = library stock concentration: 80 uM
# [5] = library stock concentration: 400 uM
# [6] = library stock concentration: 2 mM
# [7] = library stock concentration: 5.9 mM
structure (smiles),measurement,setting,value
CC(C)(Oc1ccc(C2CC2(Cl)Cl)cc1)C(=O)O (configuration not stated) [Ciprofibrate],percent Bodipy-positive cells,,9.1 ± 2.5%
same,percent Bodipy-positive cells,[1],9.3 ± 6.9%
CN(CCOc1ccc(-c2ccc3c(c2)OCO3)cc1C(C)(C)C)CC(=O)O,percent Bodipy-positive cells,[2],7.47 ± 0.28%
CCCCC[C@H](O)/C=C/[C@@H]1[C@@H](CCCCCCC(=O)O)[C@@H](O)C[C@H]1O [Prostaglandin F1.alpha.],percent Bodipy-positive cells,[3],17.7 ± 3.2%
N[C@@H](CSS(=O)(=O)O)C(=O)O [S-Sulfo-L-cysteine sodium salt],percent Bodipy-positive cells,[2],7.37 ± 2.1%
CNCCCC1c2ccccc2C=Cc2ccccc21.Cl [Protriptyline hydrochloride],percent Bodipy-positive cells,,82.8 ± 8.8%
same,percent Bodipy-positive cells,[2],87.82 ± 0.5%
C#CCCC[C@@H](O)CCCCCCCCCCC(=O)O [12(S)-hydroxy-16-Heptadecynoic Acid],percent Bodipy-positive cells,[3],13.8 ± 2.2%
CCCCCC(O)C=CC1C(O)CC(O)C1CCCCCCC(=O)O (configuration not stated) [Prostaglandin  F1a],percent Bodipy-positive cells,[3],10.1 ± 6.6%
C#C[C@]1(O)CCC2C3CCC4=CC(=O)CC[C@@H]4C3CC[C@@]21CC (some centres not stated) [Norgestrel],percent Bodipy-positive cells,library stock concentration: 6.4 mM,70.8 ± 2.6%
CCN(CC)CCCCNc1ncc2c(n1)N(C)C(=O)N(c1c(Cl)c(OC)cc(OC)c1Cl)C2,percent Bodipy-positive cells,[4],15.1 ± 9.8%
same,percent Bodipy-positive cells,[5],11.2 ± 4.1%
same,percent Bodipy-positive cells,[6],18.6 ± 3.5%
same,percent Bodipy-positive cells,[2],52.8 ± 10%
O=c1cc(O)cc(/C=C/c2ccc(O)c(O)c2)o1 [Hispidin],percent Bodipy-positive cells,[2],40.5 ± 3.1%
Clc1ccc(-c2nc3sccn3c2/C=N/OCc2ccc(Cl)c(Cl)c2)cc1,percent Bodipy-positive cells,[2],10.4 ± 1%
O=S(=O)(c1cccc2c(I)cccc12)N1CCCNCC1,percent Bodipy-positive cells,[2],93.5 ± 3.8%
O=C(c1cccs1)c1ccc(OCCCO)c(Cl)c1Cl [homo-Tienilic Alcohol],percent Bodipy-positive cells,[3],6.13 ± 1.6%
CCN1CCC[C@H]1CNC(=O)c1cc(S(N)(=O)=O)ccc1OC [Levosulpiride],percent Bodipy-positive cells,[1],7.02 ± 1.4%
same,percent Bodipy-positive cells,[2],27.6 ± 20%
CCN1CCC[C@H]1CNC(=O)c1cc(S(N)(=O)=O)ccc1OC,percent Bodipy-positive cells,[2],8.93 ± 1%
CCN1CCC[C@H]1CNC(=O)c1cc(S(N)(=O)=O)ccc1OC [Sulpiride s (-)],percent Bodipy-positive cells,[7],7.17 ± 1.5%
CCN1CCC[C@H]1CNC(=O)c1cc(S(N)(=O)=O)ccc1OC [(S)-(-)-Sulpiride],percent Bodipy-positive cells,[2],5.96 ± 1%
Nc1ccc(S(N)(=O)=O)cc1 [Sulfanilamide],percent Bodipy-positive cells,,7.69 ± 1.2%
same,percent Bodipy-positive cells,[1],14.2 ± 2.6%
same,percent Bodipy-positive cells,[2],12.3% and 29.3%
same,percent Bodipy-positive cells,library stock concentration: 11.6 mM,11.1 ± 0.48%
COc1cc2ncnc(Nc3ccc(Oc4ccccc4)cc3)c2cc1OC [Src Kinase Inhibitor I],percent Bodipy-positive cells,[1],20.4 ± 4%
COc1cc2ncnc(Nc3ccc(Oc4ccccc4)cc3)c2cc1OC,percent Bodipy-positive cells,[2],12.7 ± 4%
CCCCCCCCCCCC(=O)O [Lauric Acid],percent Bodipy-positive cells,[3],11.1 ± 1.2%
CC1CCN(CCCC(=O)c2ccc(F)cc2)CC1 [Metylperon],percent Bodipy-positive cells,[2],20.7 ± 2%
CC1CCN(CCCC(=O)c2ccc(F)cc2)CC1 [Melperone hydrochloride],percent Bodipy-positive cells,[2],17.1 ± 5.9%
CC1CCN(CCCC(=O)c2ccc(F)cc2)CC1,percent Bodipy-positive cells,[2],23.1 ± 5%
COc1cc2c(Oc3ccc(NC(=O)C4(C(=O)Nc5ccc(F)cc5)CC4)cc3F)ccnc2cc1OCCCN1CCOCC1,percent Bodipy-positive cells,[1],92.3 ± 6%
CCOc1nc2cccc(C(=O)OC(C)OC(=O)OC3CCCCC3)c2n1Cc1ccc(-c2ccccc2-c2nn[nH]n2)cc1 (configuration not stated) [Candesartan cilextil],percent Bodipy-positive cells,[2],37 ± 4.2%
CCOc1nc2cccc(C(=O)OC(C)OC(=O)OC3CCCCC3)c2n1Cc1ccc(-c2ccccc2-c2nn[nH]n2)cc1 (configuration not stated) [Candesartan Cilexetil],percent Bodipy-positive cells,[1],9.42 ± 1.9%
same,percent Bodipy-positive cells,[2],28.5 ± 18%
N[C@@H](CCC(=O)N[C@@H](CSN=O)C(=O)NCC(=O)O)C(=O)O [S-Nitrosoglutathione],percent Bodipy-positive cells,[2],36.89 ± 0.13%
CC(O)(C(=O)Nc1ccc(S(=O)(=O)c2ccccc2)cc1)C(F)(F)F (configuration not stated),percent Bodipy-positive cells,[2],9.72 ± 0.63%
same,percent Bodipy-positive cells,library stock concentration: 13.4 mM,38.9 ± 19%
CC1=C(C(=O)OCCN(Cc2ccccc2)c2ccccc2)C(c2cccc([N+](=O)[O-])c2)C(P2(=O)OCC(C)(C)CO2)=C(C)N1 (configuration not stated) [Efonidipine hydrochloride monoethanolate],percent Bodipy-positive cells,[2],8.18 ± 2.9%
"C1CCC2(CC1)CCNCC2 [4,4-Pentamethylenepiperidine hydrochloride]",percent Bodipy-positive cells,[2],12.7 ± 4.1%
CCCNS(=O)(=O)Nc1ncnc(OCCOc2ncc(Br)cn2)c1-c1ccc(Br)cc1 [Macitentan],percent Bodipy-positive cells,[1],34.1 ± 7.6%
same,percent Bodipy-positive cells,[2],42.7 ± 19%
CC(CCc1ccc(O)cc1)NCCc1ccc(O)c(O)c1 (configuration not stated) [Dobutamine HCl],percent Bodipy-positive cells,library stock concentration: 6.6 mM,6.28 ± 2%
CC(CCc1ccc(O)cc1)NCCc1ccc(O)c(O)c1 (configuration not stated) [Dobutamine hydrochloride],percent Bodipy-positive cells,,25.9 ± 0.93%
same,percent Bodipy-positive cells,[7],11.5 ± 0.24%
CCCCCCCCCCCCCCCCn1cc[n+](Cc2ccccc2)c1C.[I-],percent Bodipy-positive cells,[1],87.44 ± 0.72%
C=CC(=O)N1CCc2ccc(-n3c(=O)ccc4cnc5ccc(-c6cnn(C)c6)cc5c43)cc21,percent Bodipy-positive cells,[2],100%
O=C(NC1CC1)c1cccc(-c2ccc3c(NC(=O)C4CC4)n[nH]c3c2)c1,percent Bodipy-positive cells,[4],8.48 ± 3.4%
same,percent Bodipy-positive cells,[5],12.3 ± 0.61%
same,percent Bodipy-positive cells,[6],11.2 ± 3.8%
same,percent Bodipy-positive cells,[2],14.9 ± 3.3%
CC[C@]12CCCN3CCc4c(n(c5ccccc45)[C@@](O)(C(=O)OC)C1)[C@@H]32 [Vincamine],percent Bodipy-positive cells,,37.3 ± 6.7%
same,percent Bodipy-positive cells,[2],32.1 ± 11%
CC1=NN(c2ccc(C(=O)O)cc2)C(=O)C1=Cc1ccc(-c2cc(C)c(C)cc2[N+](=O)[O-])o1,percent Bodipy-positive cells,[1],25.1 ± 2.5%
same,percent Bodipy-positive cells,[2],24.2 ± 7.5%
